In patent US20030219427A1, “TPL-2/COT kinase and methods of use” (priority 1998, published 2003) one finds binding data, which are given here for 1 molecule.

Results are given in words; binding and its absence hold for the method and conditions named. Some results given as binding are weak or reduced against the parent protein; the word gives no strength.

The target of the assay is T1, recombinant p105498-969 protein (Homo sapiens (Human)) (UniProt P19838).
T1 sequence: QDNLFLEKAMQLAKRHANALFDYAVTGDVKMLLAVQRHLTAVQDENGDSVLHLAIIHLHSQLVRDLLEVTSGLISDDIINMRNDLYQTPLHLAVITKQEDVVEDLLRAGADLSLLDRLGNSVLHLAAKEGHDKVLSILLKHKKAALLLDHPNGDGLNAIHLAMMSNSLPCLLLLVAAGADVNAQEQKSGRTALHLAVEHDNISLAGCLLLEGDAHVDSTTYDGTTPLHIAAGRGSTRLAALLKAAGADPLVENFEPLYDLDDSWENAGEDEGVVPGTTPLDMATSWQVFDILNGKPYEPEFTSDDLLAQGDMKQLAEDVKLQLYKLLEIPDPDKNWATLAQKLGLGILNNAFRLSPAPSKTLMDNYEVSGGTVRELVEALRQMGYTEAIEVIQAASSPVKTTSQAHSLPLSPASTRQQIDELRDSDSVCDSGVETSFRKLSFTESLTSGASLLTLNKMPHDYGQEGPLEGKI
As to the kind of experiment: trypsin digestion of p105 498-969 with and without the peptide.

B1: synthetic peptide corresponding to the C-terminal 70 amino acids of TPL-2 (residues 398-467) (peptide)
peptide: CTSLDSALLERKRLLSRKELELPENIADSSCTGSTEESEMLKRQRSLYIDLGALAGYFNLVRGPPTLEYG
B1: the binding entry is recorded as “binds”.
